The values below come from article doi:10.1101/792994.

Protein sequences, listed by entry. Tags and fused reporters are not part of them.
UniProt O60573: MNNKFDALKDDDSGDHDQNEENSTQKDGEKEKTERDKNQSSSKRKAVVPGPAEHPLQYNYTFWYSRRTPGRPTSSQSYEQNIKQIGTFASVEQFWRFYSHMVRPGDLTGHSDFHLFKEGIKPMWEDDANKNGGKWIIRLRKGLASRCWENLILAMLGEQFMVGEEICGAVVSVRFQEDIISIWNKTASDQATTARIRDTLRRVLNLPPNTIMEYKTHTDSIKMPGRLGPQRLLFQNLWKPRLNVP

These are yes or no findings as the source states them, for the method shown. In cells and extracts the contact can be indirect. Some entries that bind do so weakly or less than the wild type. Sequences can lack the tags named with a protein.

For the experiment, the target named is T1, GIGYF2, endogenously tagged with GFP11 (human) (UniProt Q6Y7W6).
T1 sequence: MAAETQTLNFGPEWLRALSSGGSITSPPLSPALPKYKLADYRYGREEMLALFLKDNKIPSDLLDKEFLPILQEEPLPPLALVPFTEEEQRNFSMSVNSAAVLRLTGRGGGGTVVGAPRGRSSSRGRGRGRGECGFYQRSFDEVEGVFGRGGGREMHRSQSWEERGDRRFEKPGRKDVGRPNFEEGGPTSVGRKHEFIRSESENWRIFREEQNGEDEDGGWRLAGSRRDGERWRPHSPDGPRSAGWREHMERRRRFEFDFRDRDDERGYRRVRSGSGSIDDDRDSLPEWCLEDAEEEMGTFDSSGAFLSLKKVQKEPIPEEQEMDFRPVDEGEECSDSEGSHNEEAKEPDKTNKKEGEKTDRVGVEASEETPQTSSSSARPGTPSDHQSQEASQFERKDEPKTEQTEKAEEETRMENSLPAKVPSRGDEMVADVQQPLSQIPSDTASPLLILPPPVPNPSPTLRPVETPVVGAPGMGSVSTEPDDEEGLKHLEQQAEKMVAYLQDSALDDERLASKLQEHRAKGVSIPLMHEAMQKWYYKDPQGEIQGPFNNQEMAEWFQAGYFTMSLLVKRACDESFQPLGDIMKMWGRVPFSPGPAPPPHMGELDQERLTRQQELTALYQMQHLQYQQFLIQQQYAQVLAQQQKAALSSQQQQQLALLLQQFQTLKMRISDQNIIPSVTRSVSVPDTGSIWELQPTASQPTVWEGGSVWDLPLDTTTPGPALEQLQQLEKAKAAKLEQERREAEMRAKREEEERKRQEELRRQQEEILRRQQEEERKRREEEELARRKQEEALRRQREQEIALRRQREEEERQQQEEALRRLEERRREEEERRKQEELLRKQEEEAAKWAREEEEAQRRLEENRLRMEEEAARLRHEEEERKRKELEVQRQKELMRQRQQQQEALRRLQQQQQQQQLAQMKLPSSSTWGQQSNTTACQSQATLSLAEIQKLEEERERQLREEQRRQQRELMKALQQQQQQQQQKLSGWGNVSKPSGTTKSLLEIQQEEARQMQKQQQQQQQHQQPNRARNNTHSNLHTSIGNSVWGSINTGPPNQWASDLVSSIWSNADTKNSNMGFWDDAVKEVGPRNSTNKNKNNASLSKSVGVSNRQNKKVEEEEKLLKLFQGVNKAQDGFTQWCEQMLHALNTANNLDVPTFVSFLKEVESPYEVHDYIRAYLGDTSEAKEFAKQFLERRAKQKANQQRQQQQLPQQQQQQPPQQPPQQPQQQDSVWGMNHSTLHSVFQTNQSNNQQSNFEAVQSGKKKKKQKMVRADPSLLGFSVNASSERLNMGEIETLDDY
In words: co-IP.

For the molecule 4EHP (from UniProt O60573 1-245), the binding entry was “binds”.

B1: ZNF598 (protein, UniProt Q86UK7 1-904)
chain: MAAAGGAEGRRAALEAAAAAAPERGGGSCVLCCGDLEATALGRCDHPVCYRCSTKMRVLCEQRYCAVCREELRQVVFGKKLPAFATIPIHQLQHEKKYDIYFADGKVYALYRQLLQHECPRCPELPPFSLFGDLEQHMRRQHELFCCRLCLQHLQIFTYERKWYSRKDLARHRMQGDPDDTSHRGHPLCKFCDERYLDNDELLKHLRRDHYFCHFCDSDGAQDYYSDYAYLREHFREKHFLCEEGRCSTEQFTHAFRTEIDLKAHRTACHSRSRAEARQNRHIDLQFSYAPRHSRRNEGVVGGEDYEEVDRYSRQGRVARAGTRGAQQSRRGSWRYKREEEDREVAAAVRASVAAQQQEEARRSEDQEEGGRPKKEEAAARGPEDPRGPRRSPRTQGEGPGPKETSTNGPVSQEAFSVTGPAAPGCVGVPGALPPPSPKLKDEDFPSLSASTSSSCSTAATPGPVGLALPYAIPARGRSAFQEEDFPALVSSVPKPGTAPTSLVSAWNSSSSSKKVAQPPLSAQATGSGQPTRKAGKGSRGGRKGGPPFTQEEEEDGGPALQELLSTRPTGSVSSTLGLASIQPSKVGKKKKVGSEKPGTTLPQPPPATCPPGALQAPEAPASRAEGPVAVVVNGHTEGPAPARSAPKEPPGLPRPLGSFPCPTPQEDFPALGGPCPPRMPPPPGFSAVVLLKGTPPPPPPGLVPPISKPPPGFSGLLPSPHPACVPSPATTTTTKAPRLLPAPRAYLVPENFRERNLQLIQSIRDFLQSDEARFSEFKSHSGEFRQGLISAAQYYKSCRDLLGENFQKVFNELLVLLPDTAKQQELLSAHTDFCNREKPLSTKSKKNKKSAWQATTQQAGLDCRVCPTCQQVLAHGDASSHQALHAARDDDFPSLQAIARIIT
As for B1, the binding entry is given as “binds”.
